# Source: patent publication US20250249056A1, “CANCER THERAPIES COMPRISING A NUCLEAR EXPORT INHIBITOR AND AN ONCOLYTIC VIRUS” (priority 2022, published 2025)
# Like-named read-outs stand apart in the source and are kept apart here. Further values from the same series stand in other lists.
# Tested on: Colo205 cells
# Assay type: cell-based, human
structure (smiles),measurement,setting,value
O=C(/C=C\n1cnc(-c2cc(C(F)(F)F)cc(C(F)(F)F)c2)n1)NNc1cnccn1 [selinexor],"Differential protein expression, selinexor-treated nucleus vs control nucleus",protein A2ML1 (A8K2U0),100
same,"Differential protein expression, selinexor-treated nucleus vs control nucleus",protein ABCC4 (O15439),0.359
same,"Differential protein expression, selinexor-treated nucleus vs control nucleus",protein ABCD1 (P33897),0.46
same,"Differential protein expression, selinexor-treated nucleus vs control nucleus",protein ABCD3 (P28288),0.392
same,"Differential protein expression, selinexor-treated nucleus vs control nucleus",protein ADAM8 (P78325),0.319
same,"Differential protein expression, selinexor-treated nucleus vs control nucleus",protein AEBP2 (Q6ZN18),0.193
same,"Differential protein expression, selinexor-treated nucleus vs control nucleus",protein AGAP1 (Q9UPQ3),100
same,"Differential protein expression, selinexor-treated nucleus vs control nucleus",protein AKR1C4 (P17516),0.01
same,"Differential protein expression, selinexor-treated nucleus vs control nucleus",protein ALG6 (Q9Y672),0.442
same,"Differential protein expression, selinexor-treated nucleus vs control nucleus",protein APOD (P05090),0.01
same,"Differential protein expression, selinexor-treated nucleus vs control nucleus",protein APOO (Q9BUR5),0.427
same,"Differential protein expression, selinexor-treated nucleus vs control nucleus",protein APOOL (Q6UXV4),0.382
same,"Differential protein expression, selinexor-treated nucleus vs control nucleus",protein ASF1B (Q9NVP2),0.353
same,"Differential protein expression, selinexor-treated nucleus vs control nucleus",protein ASNS (P08243),0.391
same,"Differential protein expression, selinexor-treated nucleus vs control nucleus",protein ASPRV1 (Q53RT3),0.405
same,"Differential protein expression, selinexor-treated nucleus vs control nucleus",protein ATAD3A (Q9NVI7),0.426
same,"Differential protein expression, selinexor-treated nucleus vs control nucleus",protein ATAD3B (Q5T9A4),0.385
same,"Differential protein expression, selinexor-treated nucleus vs control nucleus",protein ATP6V0A2 (Q9Y487),0.375
same,"Differential protein expression, selinexor-treated nucleus vs control nucleus",protein AURKA (O14965),0.374
same,"Differential protein expression, selinexor-treated nucleus vs control nucleus",protein BRCA1 (P38398),0.396
same,"Differential protein expression, selinexor-treated nucleus vs control nucleus",protein BYSL (Q13895),3.24
same,"Differential protein expression, selinexor-treated nucleus vs control nucleus",protein C11orf98 (E9PRG8),3.204
same,"Differential protein expression, selinexor-treated nucleus vs control nucleus",protein CA12 (O43570),0.172
same,"Differential protein expression, selinexor-treated nucleus vs control nucleus",protein CCNB1 (P14635),0.251
same,"Differential protein expression, selinexor-treated nucleus vs control nucleus",protein CCNB2 (O95067),0.324
same,"Differential protein expression, selinexor-treated nucleus vs control nucleus",protein CDC5 (Q96FF9),0.444
same,"Differential protein expression, selinexor-treated nucleus vs control nucleus",protein CDK1 (P06493),0.47
same,"Differential protein expression, selinexor-treated nucleus vs control nucleus",protein CENPF (P49454),0.413
same,"Differential protein expression, selinexor-treated nucleus vs control nucleus",protein CHST11 (Q9NPF2),0.412
same,"Differential protein expression, selinexor-treated nucleus vs control nucleus",protein CHTF8 (P0CG13),0.389
same,"Differential protein expression, selinexor-treated nucleus vs control nucleus",protein CIP2A (Q8TCG1),0.192
same,"Differential protein expression, selinexor-treated nucleus vs control nucleus",protein CIPAS39 (Q9H9C1),100
same,"Differential protein expression, selinexor-treated nucleus vs control nucleus",protein CKS1B (P61024),0.373
same,"Differential protein expression, selinexor-treated nucleus vs control nucleus",protein CLDN4 (O14493),0.01
same,"Differential protein expression, selinexor-treated nucleus vs control nucleus",protein CLK1 (P49759),100
same,"Differential protein expression, selinexor-treated nucleus vs control nucleus",protein CLPP (Q16740),0.407
same,"Differential protein expression, selinexor-treated nucleus vs control nucleus",protein CNL3L (Q9NVN8),3.05
same,"Differential protein expression, selinexor-treated nucleus vs control nucleus",protein COMTD1 (Q86VU5),0.397
same,"Differential protein expression, selinexor-treated nucleus vs control nucleus",protein COX7A2L (O14548),0.434
same,"Differential protein expression, selinexor-treated nucleus vs control nucleus",protein DCP1A (Q9NPI6),0.259
same,"Differential protein expression, selinexor-treated nucleus vs control nucleus",protein DDAH2 (O95865),100
same,"Differential protein expression, selinexor-treated nucleus vs control nucleus",protein DHRS1 (Q96LJ7),0.01
same,"Differential protein expression, selinexor-treated nucleus vs control nucleus",protein DIAPH3 (Q9NSV4),0.27
same,"Differential protein expression, selinexor-treated nucleus vs control nucleus",protein DLAT (P10515),0.306
same,"Differential protein expression, selinexor-treated nucleus vs control nucleus",protein DMKN (Q6EOU4),7.406
same,"Differential protein expression, selinexor-treated nucleus vs control nucleus",protein DOLPP1 (Q86YN1),0.459
same,"Differential protein expression, selinexor-treated nucleus vs control nucleus",protein DPP8 (Q6V1X1),0.01
same,"Differential protein expression, selinexor-treated nucleus vs control nucleus",protein DVL3 (Q92997),7.167
same,"Differential protein expression, selinexor-treated nucleus vs control nucleus",protein ECSIT (Q9BQ95),0.457
same,"Differential protein expression, selinexor-treated nucleus vs control nucleus",protein EDC3 (Q96F86),0.414
same,"Differential protein expression, selinexor-treated nucleus vs control nucleus",protein EDC4 (Q6P2E9),0.263
same,"Differential protein expression, selinexor-treated nucleus vs control nucleus",protein ERG28 (Q9UKR5),0.409
same,"Differential protein expression, selinexor-treated nucleus vs control nucleus",protein ERLIN1 (O75477),0.433
same,"Differential protein expression, selinexor-treated nucleus vs control nucleus",protein FAM111B (Q6SJ93),0.388
same,"Differential protein expression, selinexor-treated nucleus vs control nucleus",protein FANCD2 (Q9BXW9),0.354
same,"Differential protein expression, selinexor-treated nucleus vs control nucleus",protein FANCI (Q9NVI1),0.422
same,"Differential protein expression, selinexor-treated nucleus vs control nucleus",protein FAR1 (Q8WVX9),0.45
same,"Differential protein expression, selinexor-treated nucleus vs control nucleus",protein FDFT1 (P37268),0.39
same,"Differential protein expression, selinexor-treated nucleus vs control nucleus",protein FKBP15 (Q5T1M5),0.445
same,"Differential protein expression, selinexor-treated nucleus vs control nucleus",protein FLG (P20930),0.183
same,"Differential protein expression, selinexor-treated nucleus vs control nucleus",protein GABARAPL2 (P60520),2.828
same,"Differential protein expression, selinexor-treated nucleus vs control nucleus",protein GALNT1 (Q10472),100
same,"Differential protein expression, selinexor-treated nucleus vs control nucleus",protein GLUL (P15104),0.258
same,"Differential protein expression, selinexor-treated nucleus vs control nucleus",protein GOLGA3 (Q08378),0.341
same,"Differential protein expression, selinexor-treated nucleus vs control nucleus",protein GPRC5A (Q8NFJ5),0.441
same,"Differential protein expression, selinexor-treated nucleus vs control nucleus",protein GTF2IRD1 (Q9UHL9),0.312
same,"Differential protein expression, selinexor-treated nucleus vs control nucleus",protein H2B21 (Q16778),3.428
same,"Differential protein expression, selinexor-treated nucleus vs control nucleus",protein H2BC1 (Q96A08),2.811
same,"Differential protein expression, selinexor-treated nucleus vs control nucleus",protein H2BC3 (P33778),3.428
same,"Differential protein expression, selinexor-treated nucleus vs control nucleus",protein H2BC4 (P62807),2.923
same,"Differential protein expression, selinexor-treated nucleus vs control nucleus",protein H2BC5 (P58876),2.923
same,"Differential protein expression, selinexor-treated nucleus vs control nucleus",protein H2BC11 (P06899),3.428
same,"Differential protein expression, selinexor-treated nucleus vs control nucleus",protein H2BC12 (O60814),2.923
same,"Differential protein expression, selinexor-treated nucleus vs control nucleus",protein H2BC12L (P57053),2.944
same,"Differential protein expression, selinexor-treated nucleus vs control nucleus",protein H2BC13 (Q99880),2.923
same,"Differential protein expression, selinexor-treated nucleus vs control nucleus",protein H2BC14 (Q99879),2.923
same,"Differential protein expression, selinexor-treated nucleus vs control nucleus",protein H2BC15 (Q99877),2.923
same,"Differential protein expression, selinexor-treated nucleus vs control nucleus",protein H2BC18 (Q5QNW6),2.923
same,"Differential protein expression, selinexor-treated nucleus vs control nucleus",protein H2BC19P (Q6DRA6),3.428
same,"Differential protein expression, selinexor-treated nucleus vs control nucleus",protein H2BC20P (Q6DN03),3.428
same,"Differential protein expression, selinexor-treated nucleus vs control nucleus",protein H2BC26 (Q8N257),3.428
same,"Differential protein expression, selinexor-treated nucleus vs control nucleus",protein H2BV9 (Q93079),2.923
same,"Differential protein expression, selinexor-treated nucleus vs control nucleus",protein H2BV17 (P23527),3.428
same,"Differential protein expression, selinexor-treated nucleus vs control nucleus",protein H3-4 (Q16695),3.385
same,"Differential protein expression, selinexor-treated nucleus vs control nucleus",protein H3-5 (Q6NXT2),3.559
same,"Differential protein expression, selinexor-treated nucleus vs control nucleus",protein H3-7 (Q5TEC6),3.559
same,"Differential protein expression, selinexor-treated nucleus vs control nucleus",protein H3C1 (P68431),3.511
same,"Differential protein expression, selinexor-treated nucleus vs control nucleus",protein H3C15 (Q71DI3),4.057
same,"Differential protein expression, selinexor-treated nucleus vs control nucleus",protein H4C1 (P62805),3.248
same,"Differential protein expression, selinexor-treated nucleus vs control nucleus",protein HERPUD1 (Q15011),0.01
same,"Differential protein expression, selinexor-treated nucleus vs control nucleus",protein HK2 (P52789),0.323
same,"Differential protein expression, selinexor-treated nucleus vs control nucleus",protein HK3 (P52790),0.38
same,"Differential protein expression, selinexor-treated nucleus vs control nucleus",protein HSPG2 (P98160),0.453
same,"Differential protein expression, selinexor-treated nucleus vs control nucleus",protein INPP4B (O15327),100
same,"Differential protein expression, selinexor-treated nucleus vs control nucleus",protein IQGAP3 (Q86VI3),0.268
same,"Differential protein expression, selinexor-treated nucleus vs control nucleus",protein JMJD7 (P0C870),4.28
same,"Differential protein expression, selinexor-treated nucleus vs control nucleus",protein KIF11 (P52732),0.467
same,"Differential protein expression, selinexor-treated nucleus vs control nucleus",protein KIF20A (O95235),0.4
same,"Differential protein expression, selinexor-treated nucleus vs control nucleus",protein KIF22 (Q14807),0.269
same,"Differential protein expression, selinexor-treated nucleus vs control nucleus",protein KNL1 (Q8NG31),0.466
same,"Differential protein expression, selinexor-treated nucleus vs control nucleus",protein KRT9 (P35527),3.328
same,"Differential protein expression, selinexor-treated nucleus vs control nucleus",protein KRT16 (P08779),3.311
same,"Differential protein expression, selinexor-treated nucleus vs control nucleus",protein KRT71 (Q3SY84),4.215
same,"Differential protein expression, selinexor-treated nucleus vs control nucleus",protein KRT73 (Q86Y46),4.215
same,"Differential protein expression, selinexor-treated nucleus vs control nucleus",protein KRT74 (Q7RTS7),4.215
same,"Differential protein expression, selinexor-treated nucleus vs control nucleus",protein KRT77 (Q7Z794),3.514
same,"Differential protein expression, selinexor-treated nucleus vs control nucleus",protein LAMTOR1 (Q6IAA8),0.46
same,"Differential protein expression, selinexor-treated nucleus vs control nucleus",protein LAMTOR2 (Q9Y2Q5),0.417
same,"Differential protein expression, selinexor-treated nucleus vs control nucleus",protein LARP1B (Q659C4),0.472
same,"Differential protein expression, selinexor-treated nucleus vs control nucleus",protein LCN2 (P80188),100
same,"Differential protein expression, selinexor-treated nucleus vs control nucleus",protein LEMD2 (Q8NC56),0.466
same,"Differential protein expression, selinexor-treated nucleus vs control nucleus",protein LGALS3BP (Q08380),0.457
same,"Differential protein expression, selinexor-treated nucleus vs control nucleus",protein LONP2 (Q86WA8),0.28
same,"Differential protein expression, selinexor-treated nucleus vs control nucleus",protein LSM14B (Q9BX40),0.341
same,"Differential protein expression, selinexor-treated nucleus vs control nucleus",protein LTV1 (Q96GA3),8.511
same,"Differential protein expression, selinexor-treated nucleus vs control nucleus",protein LY75 (O60449),100
same,"Differential protein expression, selinexor-treated nucleus vs control nucleus",protein MACC1 (Q6ZN28),0.333
same,"Differential protein expression, selinexor-treated nucleus vs control nucleus",protein MACROH2A1 (O75367),4.8
same,"Differential protein expression, selinexor-treated nucleus vs control nucleus",protein MACROH2A2 (Q9P0M6),5.955
same,"Differential protein expression, selinexor-treated nucleus vs control nucleus",protein MAD2L1 (Q13257),0.433
same,"Differential protein expression, selinexor-treated nucleus vs control nucleus",protein MCFD2 (Q8NI22),100
same,"Differential protein expression, selinexor-treated nucleus vs control nucleus",protein MCU (Q8NE86),0.465
same,"Differential protein expression, selinexor-treated nucleus vs control nucleus",protein MICOS10 (Q5TGZ0),0.437
same,"Differential protein expression, selinexor-treated nucleus vs control nucleus",protein MISP3 (Q96FF7),0.445
same,"Differential protein expression, selinexor-treated nucleus vs control nucleus",protein MMS22L (Q6ZRQ5),0.395
same,"Differential protein expression, selinexor-treated nucleus vs control nucleus",protein MRTFB (Q9ULH7),0.443
same,"Differential protein expression, selinexor-treated nucleus vs control nucleus",protein MT-ND1 (P03886),0.385
same,"Differential protein expression, selinexor-treated nucleus vs control nucleus",protein MT-ND2 (P03891),0.403
